Assay results published in the supplement of paper PMC8728848.
The other results are listed elsewhere or left out.

Tests used:
Assay in all cases: glycan array binding signal (z-score within array); higher = stronger binding
Conditions in all cases: glycan notation: IUPAC condensed, linker removed
Gal(b1-2)Gal = target: Gal(b1-2)Gal
Procedure, shortened: (§1)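 Glycan array binding is given as a within-array Z-score, which can be read as non-binding when negative. The arrays, 3228 of them, came from the Consortium for Functional Glycomics database and were retained only where the protein sequence was available. Z-scores were averaged across arrays of the same protein sequence at different concentrations or buffers and across linkers.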

Gal(b1-3)Gal = target: Gal(b1-3)Gal
Procedure, shortened: as §1

Gal(b1-3)Gal(b1-4)GlcNAc = target: Gal(b1-3)Gal(b1-4)GlcNAc
Procedure, shortened: as §1

Gal(b1-3)GalNAc = target: Gal(b1-3)GalNAc
Procedure, shortened: as §1

[1] = target: Gal(b1-3)GalNAc(a1-3)[Fuc(a1-2)]Gal(b1-4)Glc
Procedure, shortened: as §1

[2] = target: Gal(b1-3)GalNAc(a1-3)[Fuc(a1-2)]Gal(b1-4)GlcNAc
Procedure, shortened: as §1

Gal(b1-3)GalNAc(b1-3)Gal = target: Gal(b1-3)GalNAc(b1-3)Gal
Procedure, shortened: as §1

[3] = target: Gal(b1-3)GalNAc(b1-3)Gal(a1-4)Gal(b1-4)Glc
Procedure, shortened: as §1

[4] = target: Gal(b1-3)GalNAc(b1-4)Gal(b1-4)Glc
Procedure, shortened: as §1

[5] = target: Gal(b1-3)GalNAc(b1-4)[Neu5Ac(a2-3)]Gal(b1-4)Glc
Procedure, shortened: as §1

Gal(b1-3)GlcNAc = target: Gal(b1-3)GlcNAc
Procedure, shortened: as §1

[6] = target: Gal(b1-3)GlcNAc(a1-3)Gal(b1-4)GlcNAc
Procedure, shortened: as §1

[7] = target: Gal(b1-3)GlcNAc(a1-6)Gal(b1-4)GlcNAc
Procedure, shortened: as §1

Gal(b1-3)GlcNAc(b1-2)Man = target: Gal(b1-3)GlcNAc(b1-2)Man
Procedure, shortened: as §1

[8] = target: Gal(b1-3)GlcNAc(b1-2)Man(a1-3)[Gal(b1-3)GlcNAc(b1-2)Man(a1-6)]Man(b1-4)GlcNAc(b1-4)GlcNAc
Procedure, shortened: as §1

[9] = target: Gal(b1-3)GlcNAc(b1-2)Man(a1-3)[Gal(b1-3)GlcNAc(b1-2)Man(a1-6)]Man(b1-4)GlcNAc(b1-4)[Fuc(a1-6)]GlcNAc
Procedure, shortened: as §1

[10] = target: Gal(b1-3)GlcNAc(b1-2)Man(a1-3)[GlcNAc(b1-4)][Gal(b1-3)GlcNAc(b1-2)Man(a1-6)]Man(b1-4)GlcNAc(b1-4)GlcNAc
Procedure, shortened: as §1

[11] = target: Gal(b1-3)GlcNAc(b1-2)[Gal(b1-3)GlcNAc(b1-6)]Man(a1-6)[Gal(b1-3)GlcNAc(b1-2)Man(a1-3)]Man(b1-4)GlcNAc(b1-4)GlcNAc
Procedure, shortened: as §1

[12] = target: Gal(b1-3)GlcNAc(b1-3)Gal(b1-3)GlcNAc
Procedure, shortened: as §1

[13] = target: Gal(b1-3)GlcNAc(b1-3)Gal(b1-4)Glc
Procedure, shortened: as §1

[14] = target: Gal(b1-3)GlcNAc(b1-3)Gal(b1-4)GlcNAc
Procedure, shortened: as §1

[15] = target: Gal(b1-3)GlcNAc(b1-3)Gal(b1-4)GlcNAc(b1-2)Man(a1-3)[Gal(b1-3)GlcNAc(b1-3)Gal(b1-4)GlcNAc(b1-2)Man(a1-6)]Man(b1-4)GlcNAc(b1-4)GlcNAc
Procedure, shortened: as §1

[16] = target: Gal(b1-3)GlcNAc(b1-3)Gal(b1-4)GlcNAc(b1-2)[Gal(b1-3)GlcNAc(b1-3)Gal(b1-4)GlcNAc(b1-6)]Man(a1-6)[Gal(b1-3)GlcNAc(b1-3)Gal(b1-4)GlcNAc(b1-2)Man(a1-3)]Man(b1-4)GlcNAc(b1-4)[Fuc(a1-6)]GlcNAc
Procedure, shortened: as §1

[17] = target: Gal(b1-3)GlcNAc(b1-3)Gal(b1-4)GlcNAc(b1-3)Gal(b1-4)GlcNAc(b1-2)[Gal(b1-3)GlcNAc(b1-3)Gal(b1-4)GlcNAc(b1-3)Gal(b1-4)GlcNAc(b1-6)]Man(a1-6)[Gal(b1-3)GlcNAc(b1-3)Gal(b1-4)GlcNAc(b1-3)Gal(b1-4)GlcNAc(b1-2)Man(a1-3)]Man(b1-4)GlcNAc(b1-4)[Fuc(a1-6)]GlcNAc
Procedure, shortened: as §1

[18] = target: Gal(b1-3)GlcNAc(b1-3)Gal(b1-4)GlcNAc(b1-6)[Gal(b1-3)GlcNAc(b1-3)]Gal(b1-4)Glc
Procedure, shortened: as §1

[19] = target: Gal(b1-3)GlcNAc(b1-3)Gal(b1-4)[Fuc(a1-3)]GlcNAc
Procedure, shortened: as §1

[20] = target: Gal(b1-3)GlcNAc(b1-3)Gal(b1-4)[Fuc(a1-3)]GlcNAc(b1-6)[Gal(b1-3)GlcNAc(b1-3)]Gal(b1-4)Glc
Procedure, shortened: as §1

[21] = target: Gal(b1-3)GlcNAc(b1-3)GalNAc
Procedure, shortened: as §1

[22] = target: Gal(b1-3)GlcNAc(b1-6)Gal(b1-4)GlcNAc
Procedure, shortened: as §1

[23] = target: Gal(b1-3)GlcNAc(b1-6)GalNAc
Procedure, shortened: as §1

[24] = target: Gal(b1-3)GlcNAc(b1-6)[Gal(b1-3)]GalNAc
Procedure, shortened: as §1

Gal(b1-3)GlcNAc6S = target: Gal(b1-3)GlcNAc6S
Procedure, shortened: as §1

[25] = target: Gal(b1-3)[Fuc(a1-4)]GlcNAc
Procedure, shortened: as §1

[26] = target: Gal(b1-3)[Fuc(a1-4)]GlcNAc(b1-2)Man
Procedure, shortened: as §1

[27] = target: Gal(b1-3)[Fuc(a1-4)]GlcNAc(b1-2)Man(a1-3)[Gal(b1-3)[Fuc(a1-4)]GlcNAc(b1-2)Man(a1-6)]Man(b1-4)GlcNAc(b1-4)[Fuc(a1-6)]GlcNAc
Procedure, shortened: as §1

[28] = target: Gal(b1-3)[Fuc(a1-4)]GlcNAc(b1-3)Gal(b1-3)[Fuc(a1-4)]GlcNAc
Procedure, shortened: as §1

[29] = target: Gal(b1-3)[Fuc(a1-4)]GlcNAc(b1-3)Gal(b1-4)[Fuc(a1-3)]GlcNAc
Procedure, shortened: as §1

[30] = target: Gal(b1-3)[Fuc(a1-4)]GlcNAc(b1-6)GalNAc
Procedure, shortened: as §1

[31] = target: Gal(b1-3)[GlcNAc(b1-6)]GalNAc
Procedure, shortened: as §1

[32] = target: Gal(b1-3)[Neu5Ac(a2-6)]GalNAc
Procedure, shortened: as §1

[33] = target: Gal(b1-3)[Neu5Ac(a2-6)]GlcNAc(b1-4)Gal(b1-4)Glc
Procedure, shortened: as §1

[34] = target: Gal(b1-3)[Neu5Ac(b2-6)]GalNAc
Procedure, shortened: as §1

Gal(b1-4)Gal = target: Gal(b1-4)Gal
Procedure, shortened: as §1

[35] = target: Gal(b1-4)GalNAc(a1-3)[Fuc(a1-2)]Gal(b1-4)GlcNAc
Procedure, shortened: as §1

[36] = target: Gal(b1-4)GalNAc(b1-3)[Fuc(a1-2)]Gal(b1-4)GlcNAc
Procedure, shortened: as §1

B1: FimA-N2 (Actinomyces oris) (protein)
chain: MHHHHHHSSGVDLGTENLYFQSNAWIYDVNVYPKNEAIDVDKTIQAQKLNGYGVGSLIKFPVESTAPTLDAKSFYKYFQLKDTLDERLSEVTATDVSLEGTPLQPTDYKVETKQQTVTVTFTAEGLKKIKAAPGKKVSAVFQGKVTKAGNGAITNRAQVISDTLYAEQPPTPETPPTDPENPPTSDEVISRWGDLSIKKVDTHQQGQTKA
glycan array binding signal (z-score) (Gal(b1-2)Gal): -0.277
glycan array binding signal (z-score) (Gal(b1-3)Gal): -0.808
glycan array binding signal (z-score) (Gal(b1-3)Gal(b1-4)GlcNAc): -0.943
glycan array binding signal (z-score) (Gal(b1-3)GalNAc): -0.095
glycan array binding signal (z-score) [1]: -1.39
glycan array binding signal (z-score) [2]: -0.496
glycan array binding signal (z-score) (Gal(b1-3)GalNAc(b1-3)Gal): -0.678
glycan array binding signal (z-score) [3]: -0.155
glycan array binding signal (z-score) [4]: 0.824
glycan array binding signal (z-score) [5]: -0.093
glycan array binding signal (z-score) (Gal(b1-3)GlcNAc): 0.373
glycan array binding signal (z-score) [6]: -0.415
glycan array binding signal (z-score) [7]: -1.32
glycan array binding signal (z-score) (Gal(b1-3)GlcNAc(b1-2)Man): -1.18
glycan array binding signal (z-score) [8]: -0.179
glycan array binding signal (z-score) [9]: 2.23
glycan array binding signal (z-score) [10]: -0.373
glycan array binding signal (z-score) [11]: 0.217
glycan array binding signal (z-score) [12]: 0.328
glycan array binding signal (z-score) [13]: -1.65
glycan array binding signal (z-score) [14]: -0.883
glycan array binding signal (z-score) [15]: 0.23
glycan array binding signal (z-score) [16]: 3.71
glycan array binding signal (z-score) [17]: -0.719
glycan array binding signal (z-score) [18]: -0.655
glycan array binding signal (z-score) [19]: -0.39
glycan array binding signal (z-score) [20]: 0.426
glycan array binding signal (z-score) [21]: -0.958
glycan array binding signal (z-score) [22]: 0.036
glycan array binding signal (z-score) [23]: -1.24
glycan array binding signal (z-score) [24]: -0.51
glycan array binding signal (z-score) (Gal(b1-3)GlcNAc6S): -0.106
glycan array binding signal (z-score) [25]: 0.004
glycan array binding signal (z-score) [26]: -0.351
glycan array binding signal (z-score) [27]: -0.298
glycan array binding signal (z-score) [28]: -0.124
glycan array binding signal (z-score) [29]: 1.03
glycan array binding signal (z-score) [30]: -0.651
glycan array binding signal (z-score) [31]: -0.076
glycan array binding signal (z-score) [32]: -0.867
glycan array binding signal (z-score) [33]: -1.15
glycan array binding signal (z-score) [34]: -0.556
glycan array binding signal (z-score) (Gal(b1-4)Gal): -0.537
glycan array binding signal (z-score) [35]: -0.178
glycan array binding signal (z-score) [36]: -0.992
